Measurements published in patent publication US20240391954A1, “MC4R AGONIST PEPTIDES” (The Regents of the University of Michigan, priority 2021, published 2024).
For at least one compound, name, drawing or mass did not settle the structure. Positions of bridges follow the written chain, without caps; N, C: chain ends. Non-standard residues stand in square brackets, D forms with d. Residues, ends and D or L forms follow the SMILES beside them. dPhe(4-Br) = N[C@H](Cc1ccc(Br)cc1)C(=O)O; Nle = CCCC[C@H](N)C(=O)O

Amino acid sequences for entries named in this document (tags omitted). A change or cut given only in a name is not applied to a line headed by its entry.
UniProt P41968: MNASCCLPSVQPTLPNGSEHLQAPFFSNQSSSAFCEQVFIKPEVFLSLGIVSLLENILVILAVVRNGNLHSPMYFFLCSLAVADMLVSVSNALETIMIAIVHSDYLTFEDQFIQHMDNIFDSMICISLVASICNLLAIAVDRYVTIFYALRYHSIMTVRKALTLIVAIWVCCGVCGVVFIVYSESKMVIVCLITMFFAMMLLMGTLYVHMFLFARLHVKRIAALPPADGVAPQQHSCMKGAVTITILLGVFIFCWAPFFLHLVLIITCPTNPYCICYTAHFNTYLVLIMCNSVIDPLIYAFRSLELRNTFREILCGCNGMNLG
UniProt P32245, whole entry: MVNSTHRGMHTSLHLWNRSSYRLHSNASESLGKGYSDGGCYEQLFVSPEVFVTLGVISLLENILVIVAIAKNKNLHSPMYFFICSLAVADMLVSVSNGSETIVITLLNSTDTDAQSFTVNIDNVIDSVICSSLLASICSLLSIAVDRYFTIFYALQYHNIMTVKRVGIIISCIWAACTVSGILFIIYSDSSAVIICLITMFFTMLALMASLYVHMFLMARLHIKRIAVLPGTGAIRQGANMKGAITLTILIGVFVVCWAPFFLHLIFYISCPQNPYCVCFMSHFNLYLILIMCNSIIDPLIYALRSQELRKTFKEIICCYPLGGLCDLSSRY

Assays:
human MC3R = target: T1, human MC3R (Homo sapiens, UniProt P41968); test: split-luciferase cAMP sensor assay, agonist mode (measurement window 1), hMC3R; format: cell-based
T1 construct: expressed in transfected cells; host or cells: HEK-293 cells stably expressing the GScAMP22F split-luciferase cAMP sensor (parent reporter line from Promega); MC3R clone generated in-house, G418 selection
Description: (§1) The stable cell lines were grown and maintained in selection media consisting of Dulbecco's modified Eagle media (DMEM) with 4.5 g/l D-glucose, and 4 mM L-glutamine (Thermo Fisher Scientific, Waltham, MA), supplemented with 10% fetal bovine serum, 100 units/ml penicillin, 100 μg/ml streptomycin, 2.5 μg/ml amphotericin B, 200 μg/ml hygromycin B (for positive selection of the GScAMP22f luciferase reporter), and Geneticin™ (G418) 700 μg/ml (for MC3R or MC4R selection). Actual serum concentration during the assay is estimated to be about 1%. Cell line identity is routinely verified by qPCR and MC3R-and MC4R-specific oligonucleotides.
(§2) The assay for the determination of the cAMP response in live cells was described previously. […] Intracellular cAMP levels were measured using an FDSS 7000EX Functional Drug Screening System (Hamamatsu Photonics, Hamamatsu, Japan) in the Center for Chemical Genomics at the Life Sciences Institute. This instrument allowed the in-line addition of test-peptides and receptor agonists while simultaneously acquiring the luminescence signal from live cells. […]
(§3) With this set up it was possible to evaluate the direct effect of the test-peptides on the MC3R and MC4R cell lines during measurement window 1, while the antagonist profile in the presence of EC90 α-MSH was determined on measurement window 2. […]

human MC4R = target: T2, human MC4R (Homo sapiens, UniProt P32245); test: split-luciferase cAMP sensor assay, agonist mode (measurement window 1), hMC4R; format: cell-based; conditions: HEK-293 cells stably expressing hMC4R
T2 construct: host or cells: HEK-293 cells stably expressing the GScAMP22F split-luciferase cAMP sensor and hMC4R, G418 selection
Description: as §1, §2, §3

SMILES | EC50 (human MC3R; hMC3R stable cell line) [nM] | EC50 (human MC3R; HEK-293 cells stably expressing hMC3R) [nM] | EC50 (human MC4R) [nM]
C[C@H]1NC(=O)[C@@H](NC(=O)[C@H](CCCNC(=N)N)NC(=O)COCCOCCNC(=O)COCCOCCNC(=O)CNC(=O)CCc2ccc(I)cc2)CSSC[C@@H](C(N)=O)NC(=O)[C@@H](Cc2c[nH]c3ccccc23)NC(=O)[C@H](CCCNC(=N)N)NC(=O)[C@@H](Cc2ccc(Br)cc2)NC(=O)[C@H](CCCNC(=N)N)NC1=O [CTX-1226, Arg-cyclo(Cys-D-Ala-Arg-D-Phe(4-Br)-Arg-D-Trp-Cys)] | 12 |  | 
CCCC[C@H](NC(=O)[C@H](CCCNC(=N)N)NC(C)=O)C(=O)N[C@H]1CSSC[C@@H](C(N)=O)NC(=O)[C@H](Cc2ccccc2)NC(=O)[C@H](CCCNC(=N)N)NC(=O)[C@@H](Cc2ccc(Br)cc2)NC(=O)[C@H](CCCNC(=N)N)NC1=O [CTX-1623, Arg-Nle-cyclo(Cys-Arg-D-Phe(4-Br)-Arg-Phe-Cys)] (Ac-R[Nle]CR[dPhe(4-Br)]RFC-NH2; disulfide 3-8) |  | 3.9 | 1.7
